The nature of this experiment: qHTS Assay for Lipid Storage Modulators in Drosophila S3 Cells.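 On cell number change: cells counted by Cell Tracker Red CMTPX staining in the red channel.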 The settings on record: BODIPY lipid droplet fluorescence, 18-24 h; for cell number change: measured here: cell count max response, cells fed with added oleic acid. A digest of the protocol: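 Drosophila S3 cells got compounds at several concentrations plus oleic acid (400 uM solution). Laser-scanning cytometry with 488 nm excitation read lipid droplets at 500-530 nm and cells at 575-640 nm. Percent activity was relative to 20 uM Triacsin C.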
A general note: Quantitative high-throughput screening tests each substance at several concentrations.

[1] abbreviates: measured here: lipid fluorescence (Fed channel) AC50, cells fed with added oleic acid.
[2] abbreviates: measured here: cell number channel AC50, cells fed with added oleic acid.

SMILES strings stand for the structures. Some of the results follow. These are further read-outs of the screen, such as a control signal, another cell line or another target. No call is given for them. The list favours compounds with an active or inconclusive main result. The note in brackets gives the kind of curve behind each potency; many fits are weak.

For the compound `CCCCOC(=O)Sc1nc2ccccc2o1`, the cell number change worked out at 12.6%. The concentration at half-maximal activity (AC50) under setting [1] was 0.58 µM [rising, partial curve].

For the compound `Clc1ncn(C23CC4CC(CC(C4)C2)C3)n1`, the cell number change was -1.37%.

Turning to `CCCN1CCN(CCCNC(=O)c2ccc(CS(=O)c3ccc(OC)cc3)o2)CC1` (centres undefined), the AC50 under setting [1] is 6.51 µM [falling, single point].

As to `CCOc1ccccc1NC(=O)COC(=O)C(CC)c1ccccc1` (centres undefined), the AC50 was 0.103 µM [falling, single point] under setting [2] and 0.13 µM [falling, partial curve, poor fit] under setting [1].

As for `C=CCOc1ccc(C2N3CC4(C)CN2CC(CCC)(C3)C4=O)cc1` (centres undefined), the cell number change is -21.5%. For the same compound, the concentration at half-maximal activity (AC50) under setting [1] was 16.4 µM [falling, single point].

Take `CCCCNC(=O)Nc1cnn(CC)c1C(N)=O`: the cell number change is -87%. For the same compound, under setting [2], the concentration at half-maximal activity (AC50) was 20.6 µM [falling, partial curve]. Further, under setting [1], the AC50 is 23.1 µM [falling, partial curve].

Take `COc1ccc(S(=O)(=O)N2CCOCC2)cc1NC(=O)CC1CCCC1`: the cell number change is -13.5%. In addition, the AC50 under setting [1] was 29.1 µM [rising, single point].

Regarding `O=C(COc1ccccc1)Nc1ccc(S(=O)(=O)N2CCCC2)cc1`, the AC50 under setting [2] is 0.164 µM [rising, full curve, poor fit] and the half-maximal activity concentration (AC50) under setting [1] is 0.0517 µM [falling, full curve, poor fit].

In the case of `N#CCN(N=Nc1ccccc1)c1ccccc1`, the cell number change is -27.8%. Under setting [1], the AC50 was 32.6 µM [falling, single point].

In the case of `Cc1nn(C)c(C)c1S(=O)(=O)N(CC(=O)NCCCN1CC(C)CC(C)C1)c1ccc(C(C)C)cc1` (centres undefined), the cell number change was -9.25%. Further, under setting [1], the AC50 is 29.1 µM [falling, single point].

In the case of `CCCn1c(NC(=O)C2CCN(C(=O)c3ccc(F)cc3)CC2)nc2ccccc21`, the cell number change is 5.87%. Also, the half-maximal activity concentration (AC50) under setting [2] is 6.51 µM [rising, single point]. Moreover, the AC50 under setting [1] was 18.4 µM [falling, single point].

As to `CCc1nc(C)ccc1OCC(=O)O`, the cell number change was found to be 1.04%. Besides, the AC50 under setting [2] was 0.164 µM [falling, full curve, poor fit].

`CN(CCC#N)C(=O)COC(=O)/C=C/c1cccs1`: the AC50 under setting [1] was 16.4 µM [rising, single point].

Regarding `COc1ccccc1CC(=O)O/N=C(\N)Cc1cccc2ccccc12`, the cell number change is -89.1%. Also, the AC50 under setting [2] is 29.1 µM [falling, single point]. Besides, under setting [1], the AC50 was 29.1 µM [rising, partial curve].

Regarding `CC(=O)Nc1cccc(OCc2ccc(F)cc2)c1`, the cell number change amounted to 57.6%. Moreover, the AC50 under setting [2] was 32.6 µM [rising, single point]. Moreover, the AC50 under setting [1] is 29.1 µM [rising, single point].

Consider `Cc1ccccc1NC(=O)CSc1nnc(-c2ccco2)c(-c2ccco2)n1`, for which the cell number change is -12.7%. For the same compound, under setting [1], the AC50 is 0.82 µM [rising, single point].

Turning to `COc1ccc(CCNCC(O)COc2cccc(Br)c2)cc1` (centres undefined), the cell number change is -27.3%. Further, under setting [1], the concentration at half-maximal activity (AC50) is 5.8 µM [falling, partial curve].

`Cn1c(S(=O)(=O)Cc2ccc(Cl)cc2)nc2ccccc21`: the cell number change was 21.1%. The AC50 under setting [1] was 0.146 µM [rising, partial curve, poor fit].

`O=C(c1ccccc1)N1CCn2c(nc3ccccc32)C1`: the cell number change was -11.3%.

For `c1csc(CNc2ccc3c(c2)OCCO3)c1`, the cell number change stood at 30.6%. Further, the AC50 under setting [2] was 9.2 µM [rising, partial curve].

For `COc1ccccc1C(=O)NCCNc1ccc([N+](=O)[O-])cc1Cl`, the cell number change was -27.5%.

Consider `O=C(c1cn(-c2ccccc2)nc1-c1ccc(Cl)cc1)N1CCOCC1`, for which the cell number change came out at 29.2%. Also, under setting [1], the AC50 is 1.84 µM [rising, partial curve].

On to `COc1cc(OC)c(NC(=O)CCNS(=O)(=O)c2ccc3c(c2)oc(=O)n3C)cc1Cl`, for which the cell number change is -0.652%.

`CCOC(=O)c1c(Cc2cccc(Cl)c2)c[nH]c1C`: the cell number change was -50.7%. Further, the concentration at half-maximal activity (AC50) under setting [2] is 16.4 µM [falling, partial curve]. Moreover, the AC50 under setting [1] was 18.4 µM [falling, partial curve].

Consider `O=C(N/N=C/C=C\c1ccccc1[N+](=O)[O-])c1cc(-c2ccc3ccccc3c2)n[nH]1`, for which the cell number change was -64.7%. For the same compound, under setting [2], the AC50 was 7.31 µM [falling, partial curve]. The AC50 under setting [1] was 7.31 µM [falling, partial curve].

Take `COc1ccc2c(c1)c(-c1csc(N)n1)c(C)n2C`: the cell number change is -28.8%. Further, under setting [1], the AC50 was 14.6 µM [falling, partial curve].

Take `COc1cc(C2=NOC(C(=O)N3CCCCCC3)C2)cc(OC)c1OC` (centres undefined): the cell number change was determined as 12.2%. Further, the AC50 under setting [1] is 32.6 µM [rising, single point].

Turning to `Cc1cc(C)cc(OCCn2ccnc2)c1`, the cell number change is -12.7%. The AC50 under setting [1] was 4.61 µM [falling, partial curve].

In the case of `COc1ccc(NC(=O)Cn2cc(C(C)=O)c3ccccc32)cc1`, the cell number change amounted to 0.73%. The concentration at half-maximal activity (AC50) under setting [1] was 6.51 µM [falling, partial curve, poor fit].

With `O=C(c1ccccc1)C1CCN(C(=O)C2CCC(=O)N(Cc3cccc(F)c3)C2)CC1` (centres undefined), the cell number change is -15.3%. Also, the concentration at half-maximal activity (AC50) under setting [1] is 29.1 µM [falling, single point].

Consider `CCOC(=O)C1(Cc2cccc(Cl)c2)CCCN(C(=O)c2occc2C)C1` (centres undefined), for which the cell number change was -14.7%. Besides, the AC50 under setting [2] is 0.0116 µM [falling, full curve, poor fit].

As for `COc1ccc(C(=O)O)cc1S(=O)(=O)NCc1cccnc1`, the cell number change was -52.3%. Besides, under setting [2], the AC50 was 0.146 µM [falling, full curve].

For the compound `O=C(Nc1cccc2ccccc12)N1CC=C(c2ccccc2)CC1`, the cell number change stood at 16.7%.

On to `COC(=O)C(C(=O)OC)c1ncc(C(F)(F)F)cc1Cl`, for which the cell number change is -44.8%. Moreover, the AC50 under setting [2] was 7.31 µM [falling, partial curve, poor fit]. In addition, the AC50 under setting [1] is 0.13 µM [falling, full curve, poor fit].

As to `COc1ccccc1CC(=O)Nc1nc(-c2ccc(F)c(F)c2)cs1`, the cell number change turned out to be 33.6%.

Turning to `COc1ccc(NC(=O)CN(C)C(=O)c2ccc3c(c2)S(=O)(=O)N=C2CCCCCN23)cc1`, the cell number change was 0.54%. The concentration at half-maximal activity (AC50) under setting [1] was 0.651 µM [falling, full curve, poor fit].

As to `O=C(COC(=O)c1ccccn1)NC(=O)c1ccccc1`, the cell number change came out at 0.55%. The AC50 under setting [1] was 3.66 µM [falling, single point].

As to `CC(C)c1ccc2[nH]c3nc(SCC(=O)NC4CC4)nnc3c2c1`, the concentration at half-maximal activity (AC50) under setting [1] is 0.0103 µM [falling, full curve].

In the case of `CCN(CC)C(=O)C1CCCN(Cc2cccc(Oc3ccccc3)c2)C1` (centres undefined), the cell number change is -13.1%.

`O=C1C(NS(=O)(=O)c2ccc(Cl)cc2)=C(N2CCCCC2)C(=O)c2ccccc21`: the cell number change was -58.8%. Further, the AC50 under setting [2] was 14.6 µM [falling, single point]. In addition, the AC50 under setting [1] is 11.6 µM [falling, partial curve].

`O=C(CNC(=O)c1ccccc1Br)N/N=C/c1ccc(O)cc1`: the cell number change amounted to 4.56%.

As to `COc1cccc(C(=O)NNC(=O)CCC(=O)O)c1`, the cell number change was -22.5%. For the same compound, the AC50 under setting [1] is 0.231 µM [falling, full curve].

Take `C/C(=N/OC(=O)CC(C)C)c1cc(-c2ccc(Cl)cc2)no1`: the cell number change is -39.1%.

For the compound `Nc1ccc(-c2c3ccc(=O)cc-3oc3cc(O)ccc23)c(C(=O)O)c1`, the cell number change is -92.1%. Also, under setting [2], the AC50 was 25.9 µM [falling, partial curve]. Further, under setting [1], the concentration at half-maximal activity (AC50) is 0.58 µM [falling, single point].

As for `Cc1ccc(-c2cc3nc(C)cc(NCc4ccco4)n3n2)cc1`, the cell number change is -13.7%.

For the compound `Cc1ccc(C)c(S(=O)(=O)N2CCCOC2CNC(=O)C(=O)NCc2cccs2)c1` (centres undefined), the cell number change came to 6.65%. Besides, the AC50 under setting [1] is 18.4 µM [rising, single point].

With `COc1ccc(CN(C)C(C)C(=O)Nc2ccc(S(=O)(=O)N3CCCCC3)cc2)cc1F` (centres undefined), the cell number change is -35%. Moreover, under setting [2], the half-maximal activity concentration (AC50) was 9.2 µM [falling, partial curve]. Besides, the concentration at half-maximal activity (AC50) under setting [1] is 0.82 µM [rising, full curve].

Turning to `Cc1cc(=O)oc2cc(OCC(=O)N3CCCC(C)C3)ccc12` (centres undefined), the cell number change was -5.71%. In addition, the concentration at half-maximal activity (AC50) under setting [1] was 0.13 µM [rising, full curve, poor fit].

On to `O=C(CSc1nnc(NC(=O)c2ccco2)s1)Nc1ccccc1Br`, for which the cell number change was -0.435%. In addition, the AC50 under setting [1] is 6.51 µM [rising, single point].

In the case of `O=Nc1[nH]c(=O)c(/C=C(\O)c2ccccc2)nc1NO`, the cell number change amounted to 1.8%.

For the compound `Cc1ccccc1NC1c2ccccc2C(=O)N1Cc1ccco1` (centres undefined), the cell number change worked out at 27.2%. For the same compound, under setting [1], the AC50 is 29.1 µM [rising, single point].

For `CCCCC(O)(CCCC)C(=O)N/N=C(\C)c1ccc(Cl)cc1`, the cell number change was -24.9%. Besides, the AC50 under setting [1] is 29.1 µM [falling, single point].

For `COc1cc(-c2nnn(Cc3ccccc3C)n2)cc(OC)c1OC`, the cell number change stood at 11.5%. For the same compound, the AC50 under setting [1] is 20.6 µM [rising, single point].

With `Cc1sc2nc(-c3cccs3)nc(N3CCCN(C)CC3)c2c1C`, under setting [2], the AC50 is 4.11 µM [falling, partial curve, poor fit].

With `CCN(CC)CC(O)Cn1c(-c2cccc(Cl)c2)nc2cc(C)c(C)cc21` (centres undefined), the cell number change was -1.2%. Besides, under setting [1], the AC50 is 0.731 µM [falling, full curve, poor fit].

Turning to `CCOc1cc(-c2sc(Nc3ccc(CC)cc3)n[n+]2-c2ccccc2)ccc1OC`, the cell number change is -37.7%. The half-maximal activity concentration (AC50) under setting [2] is 0.0731 µM [falling, full curve, poor fit]. Further, the concentration at half-maximal activity (AC50) under setting [1] is 0.58 µM [falling, single point].

With `Cc1ccc(OCCC(=O)NNC(=O)c2nn(C)c(=O)c3ccccc23)cc1`, the cell number change was found to be 8.53%. Under setting [1], the AC50 is 0.00411 µM [rising, full curve, poor fit].

In the case of `O=C(Nc1ccccc1)Nc1cc(OCC(F)(F)F)cc(OCC(F)(F)F)c1`, the cell number change was -64.4%. Further, the AC50 under setting [2] is 14.6 µM [falling, partial curve]. Besides, the half-maximal activity concentration (AC50) under setting [1] was 6.51 µM [falling, partial curve].

For the compound `CCN1CCN(S(=O)(=O)c2ccc3[nH]c(=O)oc3c2)CC1`, the cell number change was -7.65%. Under setting [1], the concentration at half-maximal activity (AC50) is 0.082 µM [rising, full curve, poor fit].

On to `O=C(NCc1ccccc1F)c1ccc(S(=O)(=O)NCc2ccco2)cc1`, for which the cell number change worked out at 111%. The AC50 under setting [2] was 5.8 µM [rising, partial curve].

Consider `O=C(c1ccccn1)N1CCN(S(=O)(=O)c2cccc(Br)c2)CC1`, for which the cell number change came out at 16.6%. Under setting [1], the AC50 was 0.58 µM [rising, full curve, poor fit].

Usually AC50 stands for the concentration at which the activity in the assay is half-maximal.
